Patent publication US5114926A (Institut National De La Sante Et De La Recherche Medicale, priority 1986, dated 1992)

Assay: general procedure: solution-phase peptide synthesis
Conditions: coupling step

Boc-S(Bzl)-D(OBZl)-K(Z)-P--OH
step yield: 89%
